Some entries of the source have several records that differ or are many. This list holds those alone. The source may hold further records. Results that share an entry differ, and nothing given here explains why; dose, time, organism, isomer or construct need not be as stated for each record.

The values that follow come from US20260258049A1, “Molecules and Methods Related to Treatment of Uncontrolled Cellular Proliferation” (ST. JUDE CHILDREN'S RESEARCH HOSPITAL, priority 2019, published 2026).

This series is described as follows: In vivo pharmacokinetic (PK) study. As to conditions: NSG mice, single i.p. dose.

For the molecule `CCCn1cc(-c2nc(Nc3ccc(C(=O)NCCCCNc4cccc5c4C(=O)N(C4CCC(=O)NC4=O)C5=O)cc3)nc3[nH]ccc23)cn1` (centres unmarked) [SJ000988497], the UClast runs as follows: (dose column prints 0 (30 mg/kg elsewhere in the source), mouse 300-302, listed as compound 7, 30 mg/kg) 350 hr*ng/mL, 759.1 hr*ng/mL, 248.2 hr*ng/mL; (dose column prints 00 (100 mg/kg elsewhere in the source), mouse 303-305, listed as compound 7, 100 mg/kg) 884.7 hr*ng/mL, 179.3 hr*ng/mL, 459 hr*ng/mL.
